{"sequences": {"note": "By UniProt entry, the sequences of proteins in these tests, tags left out. Where a name states a change or a piece, a line headed by the entry shows the natural chain unless it says otherwise.", "UniProt P18054": "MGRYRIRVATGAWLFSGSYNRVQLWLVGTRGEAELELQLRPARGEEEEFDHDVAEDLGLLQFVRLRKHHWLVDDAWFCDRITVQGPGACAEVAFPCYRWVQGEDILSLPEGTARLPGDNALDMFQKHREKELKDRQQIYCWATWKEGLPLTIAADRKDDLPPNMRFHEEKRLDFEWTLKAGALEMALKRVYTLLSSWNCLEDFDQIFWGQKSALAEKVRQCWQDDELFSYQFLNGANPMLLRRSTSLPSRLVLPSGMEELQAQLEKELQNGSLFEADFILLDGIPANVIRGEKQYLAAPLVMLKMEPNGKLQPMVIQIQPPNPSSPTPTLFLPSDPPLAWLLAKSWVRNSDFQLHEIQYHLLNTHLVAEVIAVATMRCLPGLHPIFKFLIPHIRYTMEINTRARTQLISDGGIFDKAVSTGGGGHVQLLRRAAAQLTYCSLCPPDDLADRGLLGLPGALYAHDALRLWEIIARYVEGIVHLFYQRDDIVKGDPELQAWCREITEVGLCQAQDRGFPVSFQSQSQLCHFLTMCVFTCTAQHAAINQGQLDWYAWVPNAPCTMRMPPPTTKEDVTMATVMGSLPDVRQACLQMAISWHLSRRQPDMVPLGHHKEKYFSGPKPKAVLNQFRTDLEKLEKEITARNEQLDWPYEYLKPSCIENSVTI"}, "source": "PubChem BioAssay AID1671190", "about": "(National Center for Advancing Translational Sciences (NCATS), 2021)", "note": "Out of some 580,000 compounds screened, about 6,100 (1.1%) were called active. Inconclusive means that the source gave no clear call. Such entries were picked first, then a sample of the others. Calls come from the whole dose curve; as a rule, active = well fitted inhibition curve with a large enough effect; inconclusive = small, poorly fitted or top-dose-only effect, or another doubt; inactive = no such curve, though single readings can be large or run the other way. Potencies of inconclusive entries are doubtful fits and often do not repeat. % is set by controls: 0 for no effect and ±100 for the full control effect; potency is the fitted concentration of half-maximal effect.", "data": [{"biological_target": "Polyunsaturated fatty acid lipoxygenase ALOX12 (Homo sapiens) (UniProt P18054)", "assay": "Primary qHTS assay for inhibitors of human arachidonate 12S-lipoxygenase (ALOX12): Round 2", "details": "purified 12hLO, xylenol orange hydroperoxide absorbance; activity change, negative = inhibition: at 108 µM (top of the series) unless noted", "method_in_brief": "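Purified human 12hLO at 150 nM in 25 mM Hepes, 0.01% Triton X-100, pH 7.0, preincubated 15 min at room temperature with compound. Reaction started with 40 uM arachidonic acid, 30 min at room temperature. Hydroperoxide measured by Fe-xylenol orange, 573/405 nm absorbance ratio.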", "values": [{"smiles": "Nn1c(SCC(=O)N2CCCCCC2)nnc1-c1cccs1", "activity change, negative = inhibition": "inactive: -0.271%"}, {"smiles": "CCN(CC)C(=O)c1cc(-c2ccc(Br)cc2)nc2ccccc12", "activity change, negative = inhibition": "inactive: 18.3%"}, {"smiles": "COc1ccc(C(=O)O)cc1S(=O)(=O)Nc1ccccc1SCC(F)(F)F", "Potency": "inconclusive: 22.4 µM [inhibitor, full curve, poor fit]"}, {"smiles": "O=C1Nc2ccc(-c3ccco3)cc2C(=O)N2CCN(C(=O)c3ccccc3)C[C@H]12", "Potency": "inconclusive: 89.1 µM [inhibitor, partial curve]"}, {"smiles": "NS(=O)(=O)c1ccc(NC(=O)/C=C/c2cn(-c3ccccc3)nc2-c2cccc(Cl)c2)cc1", "Potency": "inconclusive: 44.7 µM [inhibitor, partial curve, poor fit]"}, {"smiles": "c1ccc(Oc2ncnc3oc(-c4ccccc4)cc23)cc1", "Potency": "inconclusive: 50.1 µM [inhibitor, single point]"}, {"smiles": "Cc1cc(C(=O)N2CCC2(C)C(=O)Nc2cc(C(C)(C)C)nn2C)nn1C", "note": "(stereo unspecified)", "activity change, negative = inhibition": "inactive: 4.75%"}, {"smiles": "CCOC(=O)c1c(NC(=O)C(C)NCc2ccco2)sc2c1CCC(C)C2", "note": "(stereo unspecified)", "Potency": "inconclusive: 1.41 µM [inhibitor, full curve, poor fit]"}, {"smiles": "O=C(Cn1c(=O)c2cccn2c2ccc(F)cc21)NCc1cccc(Cl)c1", "Potency": "inconclusive: 141 µM [inhibitor, partial curve, poor fit]"}, {"smiles": "Fc1cc(F)cc(-c2c(-c3ccccc3)ncc3ccc(F)cc23)c1", "Potency": "inconclusive: 44.7 µM [inhibitor, partial curve, poor fit]"}, {"smiles": "CSc1nnc(-c2ccc(C(F)(F)F)cn2)o1", "Potency": "inconclusive: 141 µM [inhibitor, single point]"}, {"smiles": "COCC(C)N1CCC(Oc2cccc(C(=O)NCCc3ccccc3)c2)CC1", "note": "(stereo unspecified)", "Potency": "inconclusive: 141 µM [inhibitor, partial curve, poor fit]"}, {"smiles": "CC(=O)c1c(C)[nH]c(C(=O)COc2ccc(F)c(Cl)c2)c1C", "Potency": "inconclusive: 35.5 µM [inhibitor, partial curve, poor fit]"}, {"smiles": "CC(NC(=S)Nc1ccc([N+](=O)[O-])cc1)c1ccncc1", "note": "(stereo unspecified)", "Potency": "inconclusive: 56.2 µM [inhibitor, partial curve, poor fit]"}, {"smiles": "Cc1ccc(-n2c3c(c(=O)[nH]c2=O)CN(Cc2ccco2)CN3)cc1C", "activity change, negative = inhibition": "inactive: -7.17%"}, {"smiles": "S=C(NCc1ccc(Cl)cc1)NC1CCN(Cc2ccccc2)CC1", "Potency": "inconclusive: 44.7 µM [inhibitor, partial curve, poor fit]"}, {"smiles": "CCCCCC(=O)Nc1nc(C)c(-c2csc(Nc3ccccc3OCC)n2)s1", "Potency": "inconclusive: 44.7 µM [inhibitor, partial curve, poor fit]"}, {"smiles": "CCCCn1c(N)c(N(CCC(C)C)C(=O)C2CSC3(C)CCC(=O)N23)c(=O)[nH]c1=O", "note": "(stereo unspecified)", "Potency": "inconclusive: 100 µM [inhibitor, single point]"}, {"smiles": "CCOCCn1c(=O)n(Cc2noc(C(C)(C)C)n2)c2cc(C(=O)O)cnc21", "activity change, negative = inhibition": "inactive: 31.3%"}, {"smiles": "CCCCCCCCCC=O", "activity change, negative = inhibition": "inactive: 17.2% [at 176 µM]"}, {"smiles": "COC(=O)[C@H]1C[C@@]2(c3ccccc3)c3ccccc3N[C@H]2N1", "Potency": "inconclusive: 22.4 µM [inhibitor, partial curve]"}, {"smiles": "Cc1ccc(S(=O)(=O)Nc2nc3c(s2)C[C@@H]2[C@](C)(CO)[C@H](O)CC[C@@]2(C)[C@@H]3CC(=O)O)cc1", "Potency": "inconclusive: 44.7 µM [inhibitor, partial curve]"}, {"smiles": "Cc1ccc(C(=O)OCC(=O)N(CCc2ccccc2)Cc2ccccc2)cc1S(=O)(=O)N1CCOCC1", "Potency": "inconclusive: 112 µM [inhibitor, single point]"}, {"smiles": "CCOC(=O)C1=C(CSc2nc3c(cc2C#N)CN(C)CC3)OC(N)=C(C#N)C1c1ccccc1", "note": "(stereo unspecified)", "activity change, negative = inhibition": "inactive: -1.09%"}, {"smiles": "CC(C)NC(=O)CCSc1nc(-c2ccc3c(c2)OCO3)cc(C(F)(F)F)n1", "activity change, negative = inhibition": "inactive: -20.3%"}, {"smiles": "CC(C)(C)CN1CCC(n2nccc2NC(=O)c2ccccc2Cl)CC1", "Potency": "inconclusive: 1.12 µM [inhibitor, partial curve, poor fit]"}, {"smiles": "O=C1Cc2cc(-c3csc(NC4CC4)n3)ccc2N1", "Potency": "active: 39.8 µM"}, {"smiles": "COC(=O)c1cc(NC(=O)c2ccc(OC(F)F)cc2)c(F)cc1F", "Potency": "inconclusive: 44.7 µM [inhibitor, partial curve, poor fit]"}, {"smiles": "O=c1oc(-c2ccc(O)c(O)c2)cc2cccc(O)c12", "Potency": "active: 4.47 µM"}, {"smiles": "CC(=O)NC1=NN(C(C)=O)C(c2cccc(OCc3ccccc3F)c2)S1", "note": "(stereo unspecified)", "Potency": "inconclusive: 141 µM [inhibitor, partial curve, poor fit]"}, {"smiles": "O=C(CC1C(=O)NCCN1Cc1ccc(-c2ccccc2)cc1)NCc1ccco1", "note": "(stereo unspecified)", "Potency": "inconclusive: 14.1 µM [inhibitor, full curve, poor fit]"}, {"smiles": "O=C(NC1CCCCC1)NC1CC2CCC(C1)N2C(=S)NCc1ccco1", "note": "(stereo unspecified)", "activity change, negative = inhibition": "inactive: 3.8%"}, {"smiles": "O=C(COC(=O)c1cc(-c2ccco2)nc2ccccc12)NCc1ccc2c(c1)OCO2", "Potency": "inconclusive: 28.2 µM [inhibitor, partial curve, poor fit]"}, {"smiles": "Cc1ccnc(NC(c2ccccn2)c2c(C)[nH]c3ccccc23)c1", "note": "(stereo unspecified)", "activity change, negative = inhibition": "inactive: -28.4%"}, {"smiles": "O=C(COC(=O)CCOc1ccccc1)Nc1ccc(Cl)cn1", "Potency": "inconclusive: 0.447 µM [inhibitor, full curve, poor fit]"}, {"smiles": "CCN1CCN(S(=O)(=O)c2ccc(S(=O)(=O)N(CC)Cc3ccccc3)cc2)CC1", "Potency": "active: 1.41 µM"}, {"smiles": "O=C(O)c1ccc(COc2ccc(/C=N/NC(=O)c3cccs3)cc2)cc1", "Potency": "inconclusive: 20 µM [inhibitor, partial curve]"}, {"smiles": "C/C(=N/OCc1ccc(C(N)=O)cc1)c1cc2ccccc2o1", "Potency": "inconclusive: 44.7 µM [inhibitor, partial curve, poor fit]"}, {"smiles": "CCOC(=O)c1cnc(-n2nc(C)cc2C)nc1NCc1ccc2c(c1)OCO2", "Potency": "inconclusive: 50.1 µM [inhibitor, partial curve, poor fit]"}, {"smiles": "Cc1sc(-n2c(C)cc(C=O)c2C)c(C(=O)O)c1C", "Potency": "inconclusive: 50.1 µM [inhibitor, partial curve, poor fit]"}, {"smiles": "Cc1ccc(-c2cc(C(=O)NC(C)C3CC3)c3ccccc3n2)o1", "note": "(stereo unspecified)", "Potency": "inconclusive: 28.2 µM [inhibitor, partial curve, poor fit]"}]}]}
